No constants are given. Whether binding was seen depends on the method and setting. In cells and extracts the contact can be indirect.
Target: AMPKγ3 (mouse (endogenous in gastrocnemius muscle)) (UniProt Q8BGM7)
Test: co-IP; sequential immunoprecipitation: AMPKγ3 antibody first, then AMPKγ1 antibody on the supernatant, from 200 μg mouse gastrocnemius muscle lysate protein; immunoblot of input, supernatant and immunoprecipitates

By UniProt entry, the sequences of proteins in these tests, tags left out.
UniProt Q8BGM7: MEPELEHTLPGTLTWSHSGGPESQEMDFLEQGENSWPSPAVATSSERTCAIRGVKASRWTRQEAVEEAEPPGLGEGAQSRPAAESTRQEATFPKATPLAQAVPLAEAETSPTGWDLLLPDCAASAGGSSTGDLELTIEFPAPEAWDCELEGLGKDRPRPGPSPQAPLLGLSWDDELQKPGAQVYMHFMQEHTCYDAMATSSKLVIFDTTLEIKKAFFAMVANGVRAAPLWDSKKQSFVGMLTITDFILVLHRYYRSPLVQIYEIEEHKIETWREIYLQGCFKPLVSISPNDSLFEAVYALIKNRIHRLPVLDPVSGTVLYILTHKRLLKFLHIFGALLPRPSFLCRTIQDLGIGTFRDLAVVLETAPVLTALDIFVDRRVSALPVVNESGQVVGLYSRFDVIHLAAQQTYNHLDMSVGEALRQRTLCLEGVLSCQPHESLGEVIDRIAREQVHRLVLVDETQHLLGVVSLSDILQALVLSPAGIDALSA
UniProt O54950: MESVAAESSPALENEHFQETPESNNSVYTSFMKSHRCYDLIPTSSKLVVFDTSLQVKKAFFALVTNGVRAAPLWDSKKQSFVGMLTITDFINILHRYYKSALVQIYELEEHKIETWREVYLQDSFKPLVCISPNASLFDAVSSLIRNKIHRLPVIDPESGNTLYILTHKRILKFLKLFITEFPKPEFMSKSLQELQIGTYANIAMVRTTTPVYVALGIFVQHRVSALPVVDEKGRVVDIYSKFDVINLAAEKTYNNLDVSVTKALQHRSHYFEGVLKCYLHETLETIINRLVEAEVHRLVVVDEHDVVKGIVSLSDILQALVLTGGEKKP

AMPKγ1 (from UniProt O54950 1-330)
binding: no binding

From PMC5241553
